Our source for the binding values is PMC6430831.

The target in test [1] is T1, GEF-H1 (S324A) variant (human) (UniProt Q92974).
T1 sequence: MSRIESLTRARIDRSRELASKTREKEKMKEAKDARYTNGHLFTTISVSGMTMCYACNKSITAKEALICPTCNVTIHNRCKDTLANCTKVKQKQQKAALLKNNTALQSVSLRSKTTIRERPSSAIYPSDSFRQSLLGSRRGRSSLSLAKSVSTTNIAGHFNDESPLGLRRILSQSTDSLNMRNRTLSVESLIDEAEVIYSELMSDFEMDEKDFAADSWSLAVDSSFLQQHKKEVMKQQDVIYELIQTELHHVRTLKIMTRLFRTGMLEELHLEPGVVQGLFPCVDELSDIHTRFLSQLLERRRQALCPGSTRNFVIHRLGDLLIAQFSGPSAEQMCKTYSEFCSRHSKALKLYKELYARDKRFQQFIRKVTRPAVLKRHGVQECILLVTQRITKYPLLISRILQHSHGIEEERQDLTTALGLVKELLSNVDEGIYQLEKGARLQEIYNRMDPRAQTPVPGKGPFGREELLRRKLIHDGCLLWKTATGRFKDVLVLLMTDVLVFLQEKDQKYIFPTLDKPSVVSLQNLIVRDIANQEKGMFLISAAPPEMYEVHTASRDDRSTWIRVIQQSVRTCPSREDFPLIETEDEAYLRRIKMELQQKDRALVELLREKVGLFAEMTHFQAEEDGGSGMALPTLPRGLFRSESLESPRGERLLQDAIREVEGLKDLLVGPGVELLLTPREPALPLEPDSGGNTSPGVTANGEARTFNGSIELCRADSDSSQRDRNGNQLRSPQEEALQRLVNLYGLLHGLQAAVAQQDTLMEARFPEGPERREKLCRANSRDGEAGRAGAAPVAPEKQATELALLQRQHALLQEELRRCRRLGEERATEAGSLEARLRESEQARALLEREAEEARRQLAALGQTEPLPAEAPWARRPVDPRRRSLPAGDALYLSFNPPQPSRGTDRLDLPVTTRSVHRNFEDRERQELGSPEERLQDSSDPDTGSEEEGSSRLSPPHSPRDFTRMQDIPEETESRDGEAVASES
As to the kind of experiment: co-IP; HEK293T cells transfected with the indicated plasmids (GEF-H1 WT or variants with IRF5, IKKε, IKKβ; with or without RIPK2 or NOD2); precipitated with anti-GEF-H1, protein G agarose; lysis buffer 1% NP-40, 20 mM Tris-HCl pH 7.4, 150 mM NaCl; partners detected by western blot. For orientation: In western blotting, separated proteins are transferred to a membrane and probed.

Test [2] concerns the target T2, GEF-H1 (S399A) variant, hyper-phosphorylated at S886 (human) (UniProt Q92974).
T2 sequence (chain, significantly elevated phosphorylation at S886 (detected by a specific antibody)): T1 sequence with A324S, S399A
Described as above.

Changes are numbered by the printed parent chain. Results are given in words; binding and its absence hold for the method and conditions named. Binding seen in cells or lysates may run through a third protein. Some binding calls cover weakened binding; strength is not graded here. Sequences can lack the tags named with a protein.

B1: human IKKβ (pcDNA3.1-huIKKβ-HA) (enzyme, UniProt O14920 1-756)
chain: MSWSPSLTTQTCGAWEMKERLGTGGFGNVIRWHNQETGEQIAIKQCRQELSPRNRERWCLEIQIMRRLTHPNVVAARDVPEGMQNLAPNDLPLLAMEYCQGGDLRKYLNQFENCCGLREGAILTLLSDIASALRYLHENRIIHRDLKPENIVLQQGEQRLIHKIIDLGYAKELDQGSLCTSFVGTLQYLAPELLEQQKYTVTVDYWSFGTLAFECITGFRPFLPNWQPVQWHSKVRQKSEVDIVVSEDLNGTVKFSSSLPYPNNLNSVLAERLEKWLQLMLMWHPRQRGTDPTYGPNGCFKALDDILNLKLVHILNMVTGTIHTYPVTEDESLQSLKARIQQDTGIPEEDQELLQEAGLALIPDKPATQCISDGKLNEGHTLDMDLVFLFDNSKITYETQISPRPQPESVSCILQEPKRNLAFFQLRKVWGQVWHSIQTLKEDCNRLQQGQRAAMMNLLRNNSCLSKMKNSMASMSQQLKAKLDFFKTSIQIDLEKYSEQTEFGITSDKLLLAWREMEQAVELCGRENEVKLLVERMMALQTDIVDLQRSPMGRKQGGTLDDLEEQARELYRRLREKPRDQRTEGDSQEMVRLLLQAIQSFEKKVRVIYTQLSKTVVCKQKALELLPKVEEVVSLMNEDEKTVVRLQEKRQKELWNLLKIACSKVRGPVSGSPDSMNASRLSQPGQLMSQPSTASNSLPEPAKKSEELVAEAHNLCTLLENAIQDTVREQDQSFTALDWSWLQTEEEEHSCLEQAS
As for B1, the binding entry in test [1] and in test [2] was “binds” throughout.

B2: human IKKε (pcDNA3-huIKKε-flag) (enzyme, UniProt Q14164 1-716)
chain: MQSTANYLWHTDDLLGQGATASVYKARNKKSGELVAVKVFNTTSYLRPREVQVREFEVLRKLNHQNIVKLFAVEETGGSRQKVLVMEYCSSGSLLSVLESPENAFGLPEDEFLVVLRCVVAGMNHLRENGIVHRDIKPGNIMRLVGEEGQSIYKLTDFGAARELDDDEKFVSVYGTEEYLHPDMYERAVLRKPQQKAFGVTVDLWSIGVTLYHAATGSLPFIPFGGPRRNKEIMYRITTEKPAGAIAGAQRRENGPLEWSYTLPITCQLSLGLQSQLVPILANILEVEQAKCWGFDQFFAETSDILQRVVVHVFSLSQAVLHHIYIHAHNTIAIFQEAVHKQTSVAPRHQEYLFEGHLCVLEPSVSAQHIAHTTASSPLTLFSTAIPKGLAFRDPALDVPKFVPKVDLQADYNTAKGVLGAGYQALRLARALLDGQELMFRGLHWVMEVLQATCRRTLEVARTSLLYLSSSLGTERFSSVAGTPEIQELKAAAELRSRLRTLAEVLSRCSQNITETQESLSSLNRELVKSRDQVHEDRSIQQIQCCLDKMNFIYKQFKKSRMRPGLGYNEEQIHKLDKVNFSHLAKRLLQVFQEECVQKYQASLVTHGKRMRVVHETRNHLRLVGCSVAACNTEAQGVQESLSKLLEELSHQLLQDRAKGAQASPPPIAPYPSPTRKDLLLHMQELCEGMKLLASDLLDNNRIIERLNRVPAPPDV
Consider B2, for which the binding entry was “binds” in test [1] and “no binding” in test [2].
